Some of these results come from one statement about several compounds together.
Assays:
Assay type in all cases: in vivo
[1] = test system: Heliothis virescens; assay: Heliothis virescens (tobacco budworm) egg/larva test on artificial diet; details: application rate 200 ppm (concentration in well 18 ppm), eggs 0-24 h old on artificial diet; egg mortality, larval mortality, growth regulation after 4 days
[2] = test system: Diabrotica balteata; assay: Diabrotica balteata (corn root worm) larva test on artificial diet; details: application rate 200 ppm (concentration in well 18 ppm), L2 larvae, larval mortality and growth regulation after 5 days
[3] = test system: Tetranychus urticae; assay: Tetranychus urticae (two-spotted spider mite) bean leaf disc spray test; details: application rate 200 ppm, bean leaf discs, mite populations of mixed ages; egg, larval and adult mortality 8 days later
[4] = test system: Thrips tabaci; assay: Thrips tabaci (onion thrips) sunflower leaf disc spray test; details: application rate 200 ppm, sunflower leaf discs, thrip population of mixed ages; mortality after 7 days
[5] = test system: Spodoptera littoralis; assay: Spodoptera littoralis (Egyptian cotton leafworm) cotton leaf disc spray test; details: application rate 200 ppm, cotton leaf discs, 5 L1 larvae; mortality, feeding behavior, growth regulation 3 days after treatment
[6] = test system: Plutella xylostella; assay: Plutella xylostella (diamond back moth) larva test on artificial diet; details: application rate 200 ppm (concentration in well 18 ppm), L2 larvae, larval mortality and growth regulation after 6 days

Cc1cc(C2=NCC(c3cc(Cl)c(Cl)c(Cl)c3)(C(F)(F)F)C2)ccc1C(=O)NC1COS(=O)C1 (single isomer, unassigned) [Compound A4]
at least 80%: control of Heliothis virescens [1]

CCN1OCC(NC(=O)c2ccc(C3=NCC(c4cc(Cl)cc(Cl)c4)(C(F)(F)F)C3)cc2C)C1=O (centres unmarked) [Compound A5]
at least 80%: control of Heliothis virescens [1] | control of Diabrotica balteata [2] | control of Tetranychus urticae [3] | control of Thrips tabaci [4] | control of Spodoptera littoralis [5] | control of Plutella xylostella [6]

CCN1OCC(NC(=O)c2ccc(C3=NCC(c4cc(Cl)c(Cl)c(Cl)c4)(C(F)(F)F)C3)cc2C)C1=O (centres unmarked) [Compound A6]
at least 80%: control of Heliothis virescens [1] | control of Diabrotica balteata [2] | control of Tetranychus urticae [3] | control of Thrips tabaci [4] | control of Spodoptera littoralis [5] | control of Plutella xylostella [6]

CCN1OC[C@@H](NC(=O)c2ccc(C3=NCC(c4cc(Cl)c(Cl)c(Cl)c4)(C(F)(F)F)C3)cc2C)C1=O (some centres unmarked) [Compound A7]
at least 80%: control of Heliothis virescens [1] | control of Diabrotica balteata [2] | control of Tetranychus urticae [3] | control of Thrips tabaci [4] | control of Spodoptera littoralis [5] | control of Plutella xylostella [6]

CCN1OC[C@@H](NC(=O)c2ccc(N3CCC(c4cc(Cl)cc(Cl)c4)(C(F)(F)F)C3)cc2C)C1=O (some centres unmarked) [Compound A8]
at least 80%: control of Heliothis virescens [1] | control of Diabrotica balteata [2] | control of Tetranychus urticae [3] | control of Thrips tabaci [4] | control of Spodoptera littoralis [5] | control of Plutella xylostella [6]

Cc1cc(C2=NCC(c3cc(Cl)c(Cl)c(Cl)c3)(C(F)(F)F)C2)ccc1C(=O)N[C@@H]1CON(CC(F)(F)F)C1=O (some centres unmarked) [Compound A9]
at least 80%: control of Heliothis virescens [1] | control of Diabrotica balteata [2] | control of Tetranychus urticae [3] | control of Thrips tabaci [4] | control of Spodoptera littoralis [5] | control of Plutella xylostella [6]

Cc1cc(N2CCC(c3cc(Cl)cc(Cl)c3)(C(F)(F)F)C2)ccc1C(=O)N[C@@H]1CON(CC(F)(F)F)C1=O (some centres unmarked) [Compound A10]
at least 80%: control of Heliothis virescens [1] | control of Diabrotica balteata [2] | control of Tetranychus urticae [3] | control of Thrips tabaci [4] | control of Spodoptera littoralis [5] | control of Plutella xylostella [6]

Cc1cc(C2=NCC(c3cc(Cl)cc(Cl)c3)(C(F)(F)F)C2)ccc1C(=O)NC1CON(CC(F)(F)F)C1=O (centres unmarked) [Compound A11]
at least 80%: control of Heliothis virescens [1] | control of Diabrotica balteata [2] | control of Tetranychus urticae [3] | control of Thrips tabaci [4] | control of Spodoptera littoralis [5] | control of Plutella xylostella [6]

CCN1OC[C@@H](NC(=O)c2ccc(C3=CC(c4cc(Cl)cc(Cl)c4)(C(F)(F)F)OC3)cc2C)C1=O (some centres unmarked) [Compound A12]
at least 80%: control of Heliothis virescens [1] | control of Diabrotica balteata [2] | control of Tetranychus urticae [3] | control of Thrips tabaci [4] | control of Spodoptera littoralis [5] | control of Plutella xylostella [6]

Cc1cc(C2=CC(c3cc(Cl)cc(Cl)c3)(C(F)(F)F)OC2)ccc1C(=O)N[C@@H]1CON(CC(F)(F)F)C1=O (some centres unmarked) [Compound A13]
at least 80%: control of Heliothis virescens [1] | control of Diabrotica balteata [2] | control of Tetranychus urticae [3] | control of Thrips tabaci [4] | control of Spodoptera littoralis [5] | control of Plutella xylostella [6]

CCN1OCC(NC(=O)c2cnc(N3CCC(c4cc(Cl)cc(Cl)c4)(C(F)(F)F)C3)cc2C)C1=O (centres unmarked) [Compound B1]
at least 80%: control of Heliothis virescens [1] | control of Tetranychus urticae [3] | control of Spodoptera littoralis [5]

Cc1cc(N2CCC(c3cc(Cl)cc(Cl)c3)(C(F)(F)F)C2)ncc1C(=O)NC1CON(CC(F)(F)F)C1=O (centres unmarked) [Compound B2]
at least 80%: control of Heliothis virescens [1] | control of Diabrotica balteata [2] | control of Tetranychus urticae [3] | control of Spodoptera littoralis [5] | control of Plutella xylostella [6]

CCN1OCC(NC(=O)c2ccc(N3CCC(c4cc(Cl)cc(Cl)c4)(C(F)(F)F)C3)nc2C)C1=O (centres unmarked) [Compound B3]
at least 80%: control of Heliothis virescens [1] | control of Diabrotica balteata [2] | control of Tetranychus urticae [3] | control of Thrips tabaci [4] | control of Spodoptera littoralis [5] | control of Plutella xylostella [6]

Cc1nc(N2CCC(c3cc(Cl)cc(Cl)c3)(C(F)(F)F)C2)ccc1C(=O)NC1CON(CC(F)(F)F)C1=O (centres unmarked) [Compound B4]
at least 80%: control of Heliothis virescens [1] | control of Diabrotica balteata [2] | control of Tetranychus urticae [3] | control of Thrips tabaci [4] | control of Spodoptera littoralis [5] | control of Plutella xylostella [6]

CC(C)=CCN1OC[C@@H](NC(=O)c2ccc(C3=NCC(c4cc(Cl)cc(Cl)c4)(C(F)(F)F)C3)cc2C)C1=O (some centres unmarked) [Compound D2]
at least 80%: control of Tetranychus urticae [3] | control of Plutella xylostella [6]

Cc1cc(C2=NCC(c3cc(Cl)cc(Cl)c3)(C(F)(F)F)C2)ccc1C(=O)N[C@@H]1CON(Cc2ccc([N+](=O)[O-])cc2)C1=O (some centres unmarked) [Compound D3]
at least 80%: control of Tetranychus urticae [3]

Cc1cc(C2=NCC(c3cc(Cl)cc(Cl)c3)(C(F)(F)F)C2)ccc1C(=O)N[C@@H]1CON(CCC(F)(F)F)C1=O (some centres unmarked) [Compound D4]
at least 80%: control of Heliothis virescens [1] | control of Diabrotica balteata [2] | control of Tetranychus urticae [3] | control of Thrips tabaci [4] | control of Plutella xylostella [6]

Cc1cc(C2=NCC(c3cc(Cl)cc(Cl)c3)(C(F)(F)F)C2)ccc1C(=O)N[C@@H]1CON(Cc2ccc(F)cc2)C1=O (some centres unmarked) [Compound D5]
at least 80%: control of Diabrotica balteata [2] | control of Tetranychus urticae [3] | control of Plutella xylostella [6]

Cc1cc(C2=NCC(c3cc(Cl)cc(Cl)c3)(C(F)(F)F)C2)ccc1C(=O)N[C@@H]1CON(CCCC(F)(F)F)C1=O (some centres unmarked) [Compound D6]
at least 80%: control of Diabrotica balteata [2] | control of Tetranychus urticae [3]

Cc1cc(C2=NCC(c3cc(Cl)cc(Cl)c3)(C(F)(F)F)C2)ccc1C(=O)N[C@@H]1CON(Cc2c(F)cccc2F)C1=O (some centres unmarked) [Compound D7]
at least 80%: control of Diabrotica balteata [2] | control of Tetranychus urticae [3] | control of Plutella xylostella [6]

Cc1cc(C2=NCC(c3cc(Cl)cc(Cl)c3)(C(F)(F)F)C2)ccc1C(=O)N[C@@H]1CON(CC2CC2)C1=O (some centres unmarked) [Compound D8]
at least 80%: control of Heliothis virescens [1] | control of Tetranychus urticae [3] | control of Spodoptera littoralis [5] | control of Plutella xylostella [6]

Cc1cc(C2=NCC(c3cc(Cl)cc(Cl)c3)(C(F)(F)F)C2)ccc1C(=O)N[C@@H]1CON(CCC2OCCCO2)C1=O (some centres unmarked) [Compound D9]
at least 80%: control of Tetranychus urticae [3]

Cc1cc(C2=NCC(c3cc(Cl)cc(Cl)c3)(C(F)(F)F)C2)ccc1C(=O)N[C@@H]1CON(Cc2ccc(C(F)(F)F)o2)C1=O (some centres unmarked) [Compound D10]
at least 80%: control of Diabrotica balteata [2] | control of Tetranychus urticae [3]

Cc1cc(C2=NCC(c3cc(Cl)cc(Cl)c3)(C(F)(F)F)C2)ccc1C(=O)N[C@@H]1CON(Cc2nn(C)nc2C)C1=O (some centres unmarked) [Compound D11]
at least 80%: control of Heliothis virescens [1] | control of Tetranychus urticae [3] | control of Plutella xylostella [6]

Cc1cc(C2=NCC(c3cc(Cl)cc(Cl)c3)(C(F)(F)F)C2)ccc1C(=O)N[C@@H]1CON(CC2CCC2)C1=O (some centres unmarked) [Compound D12]
at least 80%: control of Heliothis virescens [1] | control of Tetranychus urticae [3] | control of Plutella xylostella [6]

CON=C(C)CN1OC[C@@H](NC(=O)c2ccc(C3=NCC(c4cc(Cl)cc(Cl)c4)(C(F)(F)F)C3)cc2C)C1=O (some centres unmarked) [Compound D13]
at least 80%: control of Heliothis virescens [1] | control of Diabrotica balteata [2] | control of Tetranychus urticae [3] | control of Plutella xylostella [6]

C=CCN1OC[C@@H](NC(=O)c2ccc(C3=NCC(c4cc(Cl)cc(Cl)c4)(C(F)(F)F)C3)cc2C)C1=O (some centres unmarked) [Compound D14]
at least 80%: control of Heliothis virescens [1] | control of Diabrotica balteata [2] | control of Tetranychus urticae [3] | control of Plutella xylostella [6]

Cc1cc(C2=NCC(c3cc(Cl)cc(Cl)c3)(C(F)(F)F)C2)ccc1C(=O)N[C@@H]1CON(CCCC#N)C1=O (some centres unmarked) [Compound D15]
at least 80%: control of Heliothis virescens [1] | control of Tetranychus urticae [3] | control of Thrips tabaci [4] | control of Spodoptera littoralis [5] | control of Plutella xylostella [6]

Cc1cc(C2=NCC(c3cc(Cl)cc(Cl)c3)(C(F)(F)F)C2)ccc1C(=O)N[C@@H]1CON(CCCc2ccccc2)C1=O (some centres unmarked) [Compound D16]
at least 80%: control of Heliothis virescens [1] | control of Diabrotica balteata [2] | control of Tetranychus urticae [3]

COCCCCN1OC[C@@H](NC(=O)c2ccc(C3=NCC(c4cc(Cl)cc(Cl)c4)(C(F)(F)F)C3)cc2C)C1=O (some centres unmarked) [Compound D18]
at least 80%: control of Heliothis virescens [1] | control of Spodoptera littoralis [5]
